Reference: paper PMC9166295
Results are given in words; binding and its absence hold for the method and conditions named. Binding seen in cells or lysates may run through a third protein. Binding can be weak; no strength is given.

Columns and labels:
[1] = target: VIR3-FLAG in stably transformed Arabidopsis vir3-1 (vir3-1/pUBQ::VIR3-FLAG) (Arabidopsis); assay: co-IP; anti-FLAG M2 beads; proteins of enriched chloroplasts of 14-day-old stably transformed Arabidopsis vir3-1 lines in 1x PBS, 0.3% Triton X-100; immunoblots with tAPX and GAPB-specific antibodies
[2] = target: VIR3^H239Y-FLAG in stably transformed Arabidopsis vir3-1 (vir3-1/pUBQ::VIR3^H239Y-FLAG) (Arabidopsis); assay: as above

Binder	binding [1]	binding [2]
GAPB, endogenous in Arabidopsis seedlings (enzyme, UniProt P25857 81-447) KLKVAINGFGRIGRNFLRCWHGRKDSPLEVVVLNDSGGVKNASHLLKYDSMLGTFKAEVKIVDNETISVDGKLIKVVSNRDPLKLPWAELGIDIVIEGTGVFVDGPGAGKHIQAGASKVIITAPAKGADIPTYVMGVNEQDYGHDVANIISNASCTTNCLAPFAKVLDEEFGIVKGTMTTTHSYTGDQRLLDASHRDLRRARAAALNIVPTSTGAAKAVSLVLPQLKGKLNGIALRVPTPNVSVVDLVINVEKKGLTAEDVNEAFRKAANGPMKGILDVCDAPLVSVDFRCSDVSTTIDSSLTMVMGDDMVKVVAWYDNEWGYSQRVVDLAHLVASKWPGAEAVGSGDPLEDFCKTNPADEECKVYD	binds	binds
tAPX, endogenous in Arabidopsis seedlings (enzyme, UniProt Q42593 79-426) AASDAAQLISAKEDIKVLLRTKFCHPILVRLGWHDAGTYNKNIEEWPLRGGANGSLRFEAELKHAANAGLLNALKLIQPLKDKYPNISYADLFQLASATAIEEAGGPDIPMKYGRVDVVAPEQCPEEGRLPDAGPPSPADHLRDVFYRMGLDDKEIVALSGAHTLGRARPDRSGWGKPETKYTKTGPGEAGGQSWTVKWLKFDNSYFKDIKEKRDDDLLVLPTDAALFEDPSFKNYAEKYAEDVAAFFKDYAEAHAKLSNLGAKFDPPEGIVIENVPEKFVAAKYSTGKKELSDSMKKKIRAEYEAIGGSPDKPLPTNYFLNIIIAIGVLVLLSTLFGGNNNSDFSGF	binds	binds
